# Reference: PMC10681709
# Amino acid sequences for entries named in this document (tags omitted). Residues count along the entry.
# UniProt Q91XB0, 1-242: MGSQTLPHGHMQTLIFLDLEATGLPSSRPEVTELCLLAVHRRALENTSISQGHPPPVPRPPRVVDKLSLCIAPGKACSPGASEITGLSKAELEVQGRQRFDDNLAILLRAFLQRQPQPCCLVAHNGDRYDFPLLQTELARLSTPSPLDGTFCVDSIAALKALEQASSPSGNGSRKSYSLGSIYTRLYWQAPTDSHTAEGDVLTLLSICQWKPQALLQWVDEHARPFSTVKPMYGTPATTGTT
# Target: mTREX1 truncated (nuclease domain) (Mus musculus) (UniProt Q91XB0)
# Experiment: fluorescence anisotropy
# Details: 20 mM EDTA, extrapolated; FA: 5 nM FAM nucleic acid, 120 mM NaCl, 20 mM Tris pH 7.0, 20 mM EDTA, room temperature, 30 min; recombinant protein; residues 1-242; protein details: His-tag; label: 5'-FAM on strand 1
sequence,measurement,value
ACUGGACAAAUACUCCGAGG / CCUCGGAGUAUUUGUCCAGU [dsRNA20],pKd,< 4.18

# pKd: −log10 of the molar value.
